PubChem BioAssay AID1508597 | Cure First – 2020

Assay: 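Survival screen with siRNA in ovarian cancer cells derived from patients, with or without rucaparib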 (primary screen)
Cell system: human ovarian carcinoma lines grown from tumours: OCI-P5x (papillary serous) and OCI-C5x (clear cell)
Reagent: siRNA pool against human genes, 1.25 pmol siRNA per well
Time to read-out: 72 h or 96 h, depending on the cell culture
Challenge: rucaparib 20 µM (about IC30) or vehicle, present until read-out
Rucaparib or vehicle: Vehicle
Cell line: OCI-P5x (serous)
Measurement: 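Luminescent ATP-based viability assay read 72 or 96 h after transfection, depending on culture, given as normalised percent viability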
Scale: viability, normalised: higher = more viable cells remaining
Active means: 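Active when normalised viability falls below 80 percent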
Meaning of the calls: active = viability under 80%; inactive = viability 80% or more
Shown is a random part of the about 2,100 reagents, in one setting of the screen. 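Calls flag viability under 80% in either arm, not effects specific to rucaparib; the reference for percent is not stated.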 Not given: the 100% reference.

MED9, technical replicate 1
- viability, normalised (%): 63
- Call: active

MED9, technical replicate 2
- viability, normalised (%): 69.2
- Call: active

MED9, technical replicate 3
- viability, normalised (%): 78.4
- Call: active

ORC1, technical replicate 1
- viability, normalised (%): 71.3
- Call: active

ORC1, technical replicate 2
- viability, normalised (%): 74.1
- Call: active

ORC1, technical replicate 3
- viability, normalised (%): 72.3
- Call: active

PRKXP1, technical replicate 1
- viability, normalised (%): 105
- Call: inactive

PRKXP1, technical replicate 2
- viability, normalised (%): 89.8
- Call: inactive

PRKXP1, technical replicate 3
- viability, normalised (%): 80
- Call: inactive

WRNIP1, technical replicate 1
- viability, normalised (%): 105
- Call: inactive

WRNIP1, technical replicate 2
- viability, normalised (%): 90.8
- Call: inactive

WRNIP1, technical replicate 3
- viability, normalised (%): 63.6
- Call: active

Called active, among the entries above:
MED9, technical replicate 1
- viability, normalised (%): 63
- Call: active

MED9, technical replicate 2
- viability, normalised (%): 69.2
- Call: active

MED9, technical replicate 3
- viability, normalised (%): 78.4
- Call: active

ORC1, technical replicate 1
- viability, normalised (%): 71.3
- Call: active

ORC1, technical replicate 2
- viability, normalised (%): 74.1
- Call: active

ORC1, technical replicate 3
- viability, normalised (%): 72.3
- Call: active

WRNIP1, technical replicate 3
- viability, normalised (%): 63.6
- Call: active

Next records:
MAP4K1, technical replicate 1
- viability, normalised (%): 84.9
- Call: inactive

MAP4K1, technical replicate 2
- viability, normalised (%): 83.1
- Call: inactive

MAP4K1, technical replicate 3
- viability, normalised (%): 67.6
- Call: active

IL10, technical replicate 1
- viability, normalised (%): 96.6
- Call: inactive

IL10, technical replicate 2
- viability, normalised (%): 75.3
- Call: active

IL10, technical replicate 3
- viability, normalised (%): 82.1
- Call: inactive

PXK, technical replicate 1
- viability, normalised (%): 80.1
- Call: inactive

PXK, technical replicate 2
- viability, normalised (%): 65.7
- Call: active

PXK, technical replicate 3
- viability, normalised (%): 76.7
- Call: active
